Assay results: paper PMC5442318, “Hundreds of dual-stage antimalarial molecules discovered by a functional gametocyte screen” (Nature Communications, 2017)

Test system: HepG2 cells
Assay: HepG2 cytotoxicity assay
Format: cell-based
Conditions: HepG2 TOX50 versus Pf FGAA IC50
Protocol: After incubation, plates and CellTiter-Glo Reagent (G7571, Promega) were equilibrated at room temperature for 30 min before proceeding to develop the luminescent signal. Using a Multidrop combi dispenser, 25 μl per well of the signal developer were added to the plates and after 10 min at room temperature for stabilization, plates were read on the ViewLux system (Perkin Elmer).

## Cc1ccc(-c2nc3cc(NC(=O)c4ccc([N+](=O)[O-])o4)ccc3o2)cc1Cl [TCMDC-123657]
  Selectivity ratio: 1.27

## CCN(CC)CCCn1c(N)c(-c2nc3ccccc3[nH]2)c2nc(C#N)c(C#N)nc21 [TCMDC-123680]
  Selectivity ratio: 5.79

## Cc1ccnc(NC(c2ccc(Cl)c([N+](=O)[O-])c2)c2ccc3cccnc3c2O)c1 (centres unmarked) [TCMDC-123691]
  Selectivity ratio: 15.84

## OC1CCN(c2cc(-c3ccccn3)nc(-c3ccccn3)n2)CC1 [TCMDC-123786]
  Selectivity ratio: 9.15

## COc1ccc(-c2csc3ncnc(Cl)c23)cc1 [TCMDC-123805]
  Selectivity ratio: 0.38

## Clc1ccc(-c2csc3ncnc(Cl)c23)cc1 [TCMDC-123811]
  Selectivity ratio: 60.12

## COc1cc2nc(N3CCN(c4nc(N)c5cc(OC)c(OC)cc5n4)CC3)nc(N)c2cc1OC [TCMDC-123865]
  Selectivity ratio: 89.78

## O=C(Nc1nc(-c2ccccn2)cs1)c1ccc(Br)s1 [TCMDC-123868]
  Selectivity ratio: 32.14

## CCCC(=O)NC(c1ccc(C(C)C)cc1)c1ccc2cccnc2c1O (centres unmarked) [TCMDC-123884]
  Selectivity ratio: >65

## CCOc1ccc(-n2nc3c(Cl)nnc(-c4ccccc4)c3c2-c2ccccc2)cc1 [TCMDC-123899]
  Selectivity ratio: >106.38

## OCCN1CCN(c2ccc(Nc3ccnc4cc5ccccc5cc34)cc2)CC1 [TCMDC-123915]
  Selectivity ratio: 1.63

## CCc1cc2c(Sc3nnc(N)s3)ncnc2s1 [TCMDC-123993]
  Selectivity ratio: 44.35

## Cc1ccnc(NC(c2cccc(Cl)c2Cl)c2ccc3cccnc3c2O)c1 (centres unmarked) [TCMDC-123997]
  Selectivity ratio: 23.97

## [O-][s+]1c(Cl)c(-c2ccc(Cl)cc2)c2ccc(Cl)cc21 (centres unmarked) [TCMDC-124011]
  Selectivity ratio: 310.09

## Cc1cc(I)ccc1Nc1nc2nonc2nc1Nc1ccc(I)cc1C [TCMDC-124083]
  Selectivity ratio: 0.86

## FC(F)(F)c1cccc(Nc2nc3ccccc3nc2Nc2cccc(C(F)(F)F)c2)c1 [TCMDC-124162]
  Selectivity ratio: 7.38

## CC(C)C1=CC(=NOS(=O)(=O)c2ccccc2)C=C(C(C)C)C1=O [TCMDC-124172]
  Selectivity ratio: 24.74

## CCN1CCN(c2ccc(Nc3c4ccccc4nc4ccccc34)cc2)CC1 [TCMDC-124255]
  Selectivity ratio: 4.56

## Cl.c1ccc2c(NCCCCCCCCCNc3c4ccccc4nc4ccccc34)c3ccccc3nc2c1 [TCMDC-124286]
  Selectivity ratio: 2.73

## Cc1ccc(Cl)c2sc(N3CCN(C(=O)c4ccc([N+](=O)[O-])o4)CC3)nc12 [TCMDC-124311]
  Selectivity ratio: 17.93

## Cc1ccc(C)c2sc(N3CCN(C(=O)c4ccc([N+](=O)[O-])o4)CC3)nc12 [TCMDC-124315]
  Selectivity ratio: 33.48

## C=CCN(C(=O)c1ccc(Cl)c([N+](=O)[O-])c1)c1nc(-c2ccccc2)cs1 [TCMDC-124436]
  Selectivity ratio: >769.23

## CC(C)(C)Nc1cc(C2CC2)nc(-c2ccccn2)n1 [TCMDC-124453]
  Selectivity ratio: >1,000

## Cn1c(Sc2ncnc3sccc23)nc2ccccc21 [TCMDC-124514]
  Selectivity ratio: >80

## Cc1sc2ncnc(Sc3nnc(N)s3)c2c1C [TCMDC-124542]
  Selectivity ratio: 47.05

## c1ccn2c(Sc3ncnc4sccc34)ncc2c1 [TCMDC-124602]
  Selectivity ratio: >416.67

## Cc1ccc2c(c1)c(C1CCN(C(=O)c3ccc([N+](=O)[O-])o3)CC1)cn2C [TCMDC-124787]
  Selectivity ratio: 13.60

## COc1ccc(OC)c(-c2cccc(-c3cccc(NC(=O)c4ccc([N+](=O)[O-])o4)c3)n2)c1 [TCMDC-124799]
  Selectivity ratio: 3.77

## O=C(c1ccc([N+](=O)[O-])o1)N1CCC(Cc2ccc(C(F)(F)F)cc2)CC1 [TCMDC-124805]
  Selectivity ratio: 174.28

## Cc1sc2nc(CN3CCCC3)nc(-n3c(NCCO)nc4ccccc43)c2c1C [TCMDC-124811]
  Selectivity ratio: 3.65

## CCCc1cc(=O)[nH]c(-n2nc(C)cc2NC(=O)CC(c2ccccc2)c2ccccc2)n1 [TCMDC-124940]
  Selectivity ratio: >76.92

## CCOc1ccc2nc3cc(NC(=O)c4ccco4)ccc3c(N)c2c1 [TCMDC-125004]
  Selectivity ratio: 5.53

## Cc1ccccc1OCC(O)CNC1CCC(NCC(O)COc2ccccc2C)CC1 (centres unmarked) [TCMDC-125142]
  Selectivity ratio: 3.66

## O=C(c1ccc([N+](=O)[O-])o1)N1CCN(c2nc3c(F)cc(F)cc3s2)CC1 [TCMDC-125149]
  Selectivity ratio: >76.34

## CNCCCNCc1ccc(-c2ccc(F)c(Cl)c2)o1.Cl [TCMDC-125237]
  Selectivity ratio: 5.68

## Cc1ccc(-n2c(Sc3ncnc4sccc34)nnc2N2CCCC2)cc1 [TCMDC-125247]
  Selectivity ratio: 181.00

## CC(Nc1cc(-c2ccccn2)nc(-c2ccccn2)n1)c1ccccc1 (centres unmarked) [TCMDC-125420]
  Selectivity ratio: 29.80

## c1ccc(CNc2cc(-c3ccccn3)nc(-c3ccccn3)n2)cc1 [TCMDC-125421]
  Selectivity ratio: 40.15

## O=C(Nc1nc(-c2ccccn2)cs1)c1ccc(S(=O)(=O)N2CCc3ccccc32)cc1 [TCMDC-125432]
  Selectivity ratio: 27.41

## Cc1c(Cl)cccc1N=C(S)NN=Cc1ccccn1 [TCMDC-125487]
  Selectivity ratio: >3,333.33

## Fc1ccc(NC(S)=NN=Cc2ccccn2)cc1 [TCMDC-125521]
  Selectivity ratio: >3,333.33

## SC(=Nc1ccc(Cl)c(Cl)c1)NN=Cc1ccccn1 [TCMDC-125522]
  Selectivity ratio: 41.70

## c1ccc2sc(Sc3ncnc4sccc34)nc2c1 [TCMDC-125539]
  Selectivity ratio: >714.29

## Fc1ccc2nc(Nc3nc(-c4ccccn4)cs3)sc2c1 [TCMDC-125540]
  Selectivity ratio: 1073.05

## Oc1c(C(Nc2ccccn2)c2ccc(Cl)cc2Cl)ccc2cccnc12 (centres unmarked) [TCMDC-125559]
  Selectivity ratio: 11.16

## O=C(Nc1cc(C(F)(F)F)cc(C(F)(F)F)c1)Nc1ccc(Cl)c(Cl)c1 [TCMDC-125592]
  Selectivity ratio: 2.15

## CCCC(N)C(=O)NC1CCN(c2c(F)c(N)c3c(=O)c(C(=O)O)cn4c3c2Oc2ccccc2-4)C1.Cl (centres unmarked) [TCMDC-125701]
  Selectivity ratio: 1.41

## ON=C(c1nc2ccccc2[nH]1)c1nc2ccccc2[nH]1 [TCMDC-125758]
  Selectivity ratio: 14.86

## c1ccc(-c2nc(NC3CCCCC3)cc(C3CC3)n2)nc1 [TCMDC-125825]
  Selectivity ratio: 307.80

## CC(C)(C)c1cc(NC2CC2)nc(-c2ccccn2)n1 [TCMDC-125826]
  Selectivity ratio: >833.33

## COc1ccc2nc3cc(Cl)ccc3c(N)c2c1.Cl [TCMDC-125835]
  Selectivity ratio: 2.32

## CCN(CCNS(C)(=O)=O)c1ccc(N)c(C)c1.O.O=S(=O)(O)O [TCMDC-125836]
  Selectivity ratio: 22.91

## COc1ccc(CCNCCCCCCNCCc2ccc(-c3ccccc3)cc2)cc1OC.Cl [TCMDC-131267]
  Selectivity ratio: 5.49

## Br.Oc1ccc(CCNCCCCCCNCCc2ccc(-c3ccccc3)cc2)cc1O [TCMDC-131268]
  Selectivity ratio: 1.21

## COc1ccc(CCNCCCCCCNCCc2ccc(Cl)c3ccccc23)cc1OC.Cl [TCMDC-131270]
  Selectivity ratio: 3.67

## Br.Oc1ccc(CCNCCCCCCNCCc2ccc(Cl)c3ccccc23)cc1O [TCMDC-131271]
  Selectivity ratio: 4.72

## COc1ccc(CCNCCCCCCNCCc2ccc(Cl)cc2)c(Cl)c1OC.Cl [TCMDC-131272]
  Selectivity ratio: 6.69

## Br.CC(C)(Cc1ccc(Cl)cc1)NCCCCCCNCCc1ccc(O)c(O)c1 [TCMDC-131277]
  Selectivity ratio: 1.14

## Br.CCCCc1ccc(CCNCCCCCCNCCc2ccc(O)c(O)c2)cc1 [TCMDC-131281]
  Selectivity ratio: 2.16

## CCC(CSC1CCCCC1)N(C)CCN(C)C(CC)CSC1CCCCC1.Cl (centres unmarked) [TCMDC-131456]
  Selectivity ratio: 0.05

## C[C@H](Cc1ccc(C[C@@H](C)NC[C@H](O)c2cccc(Cl)c2)cc1)NC[C@H](O)COc1ccccc1.Cl [TCMDC-131549]
  Selectivity ratio: 3.72

## C[C@H](Cc1ccc(CCc2ccc(C[C@@H](C)NC[C@H](O)c3cccc(Cl)c3)cc2)cc1)NC[C@H](O)c1cccc(Cl)c1.Cl [TCMDC-131551]
  Selectivity ratio: 2.08

## C[C@H](Cc1ccc(Oc2ccc(C[C@@H](C)NC[C@H](O)c3cccc(Cl)c3)cc2)cc1)NC[C@H](O)c1cccc(Cl)c1.Cl [TCMDC-131560]
  Selectivity ratio: 2.82

## C[C@H](Cc1ccc(OCCCCCOc2ccc(C[C@@H](C)NC[C@H](O)c3cccc(Cl)c3)cc2)cc1)NC[C@H](O)c1cccc(Cl)c1.Cl [TCMDC-131563]
  Selectivity ratio: 2.20

## C[C@H](Cc1ccc(OCCCCCCOc2ccc(C[C@@H](C)N[C@H](C)c3ccccc3)cc2)cc1)NC[C@H](O)c1cccc(Cl)c1.Cl [TCMDC-131564]
  Selectivity ratio: 5.97

## N=C(/N=C(/NCCCCCCN/C(=N\C(=N)Nc1ccc(Cl)cc1)N1CCCCC1)N1CCCCC1)Nc1ccc(Cl)cc1 [TCMDC-131811]
  Selectivity ratio: 5.62

## N=C(/N=C(/NCCCCCCN/C(=N/C(=N)NCc1ccc(Cl)c(Cl)c1)N1CCCCC1)N1CCCCC1)NCc1ccc(Cl)c(Cl)c1 [TCMDC-131816]
  Selectivity ratio: 16.52

## CCN(CC)/C(=N/C(=N)NCc1ccc(Cl)cc1Cl)NCCCCCCN/C(=N\C(=N)NCc1ccc(Cl)cc1Cl)N(CC)CC [TCMDC-131819]
  Selectivity ratio: 7.73

## CCCCN(CCCC)/C(=N/C(=N)NCc1ccc(Cl)c(Cl)c1)NCCCCCCN/C(=N\C(=N)NCc1ccc(Cl)c(Cl)c1)N(CCCC)CCCC [TCMDC-131821]
  Selectivity ratio: 5.55

## COc1cc2nc(NCCCN3CCCCC3)nc(NCc3ccccc3)c2cc1OC [TCMDC-132012]
  Selectivity ratio: 7.62

## Br.CCc1c(CCNCCCCCCNCCc2ccc(Br)cc2)ccc(O)c1O [TCMDC-132044]
  Selectivity ratio: 6.15

## CCc1c(CCNCCCCCCNC(C)Cc2ccc3c(c2CC)OCO3)ccc(OC)c1OC.Cl (centres unmarked) [TCMDC-132052]
  Selectivity ratio: 5.11

## Cc1c2ccncc2c(C)c2c1[nH]c1cc(Cc3ccccc3)c(O)cc12 [TCMDC-132053]
  Selectivity ratio: 1.13

## CCc1c(CCNCCCCCCNC(C)(C)Cc2ccc3c(c2CC)OCO3)ccc(OC)c1OC.Cl [TCMDC-132055]
  Selectivity ratio: 3.49

## CCc1c(CCNC/C=C/C=C/CNCCc2ccc(OC)c(OC)c2CC)ccc(OC)c1OC.Cl [TCMDC-132061]
  Selectivity ratio: 1.82

## CCc1c(CCNCCCCCNCCc2ccc(OC)c(OC)c2CC)ccc(OC)c1OC.Cl [TCMDC-132064]
  Selectivity ratio: 2.28

## CCc1c(CCNCCCCCCNCCc2ccc([N+](=O)[O-])cc2)ccc(OC)c1OC.Cl [TCMDC-132066]
  Selectivity ratio: 3.13
